PubChem BioAssay AID1259254 | NCATS – 2017

- Aim: 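Gene knock-downs that lead to re-replication, shown by excess G2 DNA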 (primary screen)
- Cells: human HCT116 colorectal cancer cells
- Reagents: single siRNA against human genes
- Timing: 3 days
- Detection: 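Imaged Hoechst DNA stain sorts each cell into a cycle phase by DNA amount; per plate, G2 fraction set to 0% for non-targeting and 100% for GMNN siRNA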
- Direction: G2 robust z-score and G2 cells, % of GMNN control: higher = more G2 cells, more excess DNA replication; raw share of cells in G2: higher = larger share of cells with G2 DNA content
- Hit rule: 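Active siRNAs have a G2 robust z of 5 or more median absolute deviations over the median, which in these data means about 38% or higher of GMNN control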
In all, the deposit lists about 59,000 reagents; shown is a part drawn at random. Of all reagents, about 1,550 (2.6%) got an active call. 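G2 share is only a proxy for re-replication; each gene was hit by three separate siRNAs, and active genes were retested.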 The raw values are shown without normalisation. The numbers tell different reagents against one gene apart. The record does not give: the amount of reagent.

| gene knocked down | reagent | G2 robust z-score | G2 cells, % of GMNN control | raw share of cells in G2 (%) | Outcome |
| --- | --- | --- | --- | --- | --- |
| APOBEC2 (GeneID 10930) | 1 | 3.3 | 26.2 | 17.1 | inactive |
| APOBEC2 (GeneID 10930) | 2 | -1.32 | -6.29 | 1.81 | inactive |
| APOBEC2 (GeneID 10930) | 3 | -0.42 | 0.00901 | 6.48 | inactive |
| OR5M3 (GeneID 219482) | 1 | 0.241 | 4.67 | 4.68 | inactive |
| OR5M3 (GeneID 219482) | 2 | 0.875 | 9.13 | 6.89 | inactive |
| OR5M3 (GeneID 219482) | 3 | -0.24 | 1.28 | 3.57 | inactive |
| TFDP3 (GeneID 51270) | 1 | -0.344 | 0.549 | 4.45 | inactive |
| TFDP3 (GeneID 51270) | 2 | -0.208 | 1.51 | 4.38 | inactive |
| TFDP3 (GeneID 51270) | 3 | 2.25 | 18.8 | 14.5 | inactive |
| ARL15 (GeneID 54622) | 1 | 0.526 | 6.67 | 8.98 | inactive |
| ARL15 (GeneID 54622) | 2 | -0.557 | -0.951 | 3.89 | inactive |
| ARL15 (GeneID 54622) | 3 | -0.41 | 0.0819 | 3.83 | inactive |
| H3C8 (GeneID 8355) | 1 | 0.67 | 7.68 | 8.54 | inactive |
| H3C8 (GeneID 8355) | 2 | -0.566 | -1.01 | 3.49 | inactive |
| H3C8 (GeneID 8355) | 3 | -0.287 | 0.949 | 3.68 | inactive |
| CHKA (GeneID 1119) | 1 | 0.908 | 9.36 | 8.56 | inactive |
| CHKA (GeneID 1119) | 2 | -0.0178 | 2.84 | 6.55 | inactive |
| CHKA (GeneID 1119) | 3 | -0.669 | -1.74 | 3.41 | inactive |
| INA (GeneID 9118) | 1 | 0.959 | 9.71 | 9.44 | inactive |
| INA (GeneID 9118) | 2 | -1.04 | -4.37 | 2.16 | inactive |
| INA (GeneID 9118) | 3 | -0.574 | -1.07 | 2.97 | inactive |
| CCDC136 (GeneID 64753) | 1 | 5.73 | 43.3 | 23.4 | active |
| CCDC136 (GeneID 64753) | 2 | 0.664 | 7.64 | 8.03 | inactive |
| CCDC136 (GeneID 64753) | 3 | -0.0325 | 2.74 | 3.42 | inactive |
| LRRC43 (GeneID 254050) | 1 | -0.435 | -0.0923 | 3.54 | inactive |
| LRRC43 (GeneID 254050) | 2 | -0.141 | 1.98 | 3.81 | inactive |
| LRRC43 (GeneID 254050) | 3 | 3.09 | 24.7 | 11.1 | inactive |
| TOX3 (GeneID 27324) | 1 | -0.0863 | 2.36 | 7.23 | inactive |
| TOX3 (GeneID 27324) | 2 | 1.21 | 11.5 | 8 | inactive |
| TOX3 (GeneID 27324) | 3 | -1.13 | -4.98 | 2.36 | inactive |
| PLPP5 (GeneID 84513) | 1 | -0.0326 | 2.74 | 5.02 | inactive |
| PLPP5 (GeneID 84513) | 2 | 0.235 | 4.62 | 4.83 | inactive |
| PLPP5 (GeneID 84513) | 3 | 1.43 | 13 | 6.35 | inactive |
| G6PC3 (GeneID 92579) | 1 | 1.63 | 14.4 | 9.48 | inactive |
| G6PC3 (GeneID 92579) | 2 | 2.77 | 22.5 | 11.1 | inactive |
| G6PC3 (GeneID 92579) | 3 | 0.126 | 3.85 | 4.66 | inactive |
| POFUT4 (GeneID 170384) | 1 | -0.564 | -1 | 5.48 | inactive |
| POFUT4 (GeneID 170384) | 2 | 0.816 | 8.71 | 7.89 | inactive |
| POFUT4 (GeneID 170384) | 3 | 0.525 | 6.66 | 7.5 | inactive |
| NSRP1 (GeneID 84081) | 1 | 0.348 | 5.41 | 5.91 | inactive |
| NSRP1 (GeneID 84081) | 2 | 0.403 | 5.8 | 5.18 | inactive |
| NSRP1 (GeneID 84081) | 3 | -0.568 | -1.03 | 2.09 | inactive |
| KCTD6 (GeneID 200845) | 1 | 0.339 | 5.35 | 4.93 | inactive |
| KCTD6 (GeneID 200845) | 2 | -0.663 | -1.69 | 2.58 | inactive |
| KCTD6 (GeneID 200845) | 3 | 0.16 | 4.09 | 4.96 | inactive |

As entered above:
G6PC3 (GeneID 92579) #2, G2 cells, % of GMNN control: 22.5
APOBEC2 (GeneID 10930) #1, G2 robust z-score = 3.3
For “G2 cells, % of GMNN control”, INA (GeneID 9118) #1 is entered as 9.71
NSRP1 (GeneID 84081) #3, G2 cells, % of GMNN control = -1.03
Under “Outcome”, CCDC136 (GeneID 64753) #3 shows inactive
Entry for TFDP3 (GeneID 51270) #1 in “raw share of cells in G2 (%)”: 4.45

More results follow:
| gene knocked down | reagent | G2 robust z-score | G2 cells, % of GMNN control | raw share of cells in G2 (%) | Outcome |
| --- | --- | --- | --- | --- | --- |
| DAND5 (GeneID 199699) | 1 | 1.61 | 14.3 | 8.72 | inactive |
| DAND5 (GeneID 199699) | 2 | -0.728 | -2.16 | 2.24 | inactive |
| DAND5 (GeneID 199699) | 3 | 1.58 | 14.1 | 7.21 | inactive |
| PUS3 (GeneID 83480) | 1 | -0.521 | -0.701 | 3.94 | inactive |
| PUS3 (GeneID 83480) | 2 | -0.893 | -3.32 | 3.56 | inactive |
| PUS3 (GeneID 83480) | 3 | 1.15 | 11 | 10 | inactive |
| DOCK7 (GeneID 85440) | 1 | 1.73 | 15.2 | 10.2 | inactive |
| DOCK7 (GeneID 85440) | 2 | -0.451 | -0.204 | 5.58 | inactive |
| DOCK7 (GeneID 85440) | 3 | -0.375 | 0.329 | 5.11 | inactive |
| CRLF2 (GeneID 64109) | 1 | -0.641 | -1.54 | 3.8 | inactive |
| CRLF2 (GeneID 64109) | 2 | 0.143 | 3.97 | 7.29 | inactive |
| CRLF2 (GeneID 64109) | 3 | 1.81 | 15.7 | 9.93 | inactive |
| SNX11 (GeneID 29916) | 1 | -0.495 | -0.513 | 3.47 | inactive |
| SNX11 (GeneID 29916) | 2 | 0.283 | 4.96 | 4.54 | inactive |
| SNX11 (GeneID 29916) | 3 | -1.38 | -6.75 | 2.86 | inactive |
| FOLR3 (GeneID 2352) | 1 | 1.58 | 14.1 | 10.4 | inactive |
| FOLR3 (GeneID 2352) | 2 | 0.789 | 8.52 | 8.5 | inactive |
| FOLR3 (GeneID 2352) | 3 | -0.38 | 0.291 | 3.76 | inactive |
| LOC649201 (retired record) (GeneID 649201) | 1 | 0.328 | 5.27 | 5.62 | inactive |
| LOC649201 (retired record) (GeneID 649201) | 2 | 0.033 | 3.2 | 4.35 | inactive |
| LOC649201 (retired record) (GeneID 649201) | 3 | -0.312 | 0.773 | 3.01 | inactive |
| B3GNT8 (GeneID 374907) | 1 | 1.12 | 10.8 | 9.19 | inactive |
| B3GNT8 (GeneID 374907) | 2 | 0.913 | 9.39 | 7.71 | inactive |
| B3GNT8 (GeneID 374907) | 3 | 0.675 | 7.72 | 9.24 | inactive |
